Data: paper PMC5267525, “Sec3 promotes the initial binary t-SNARE complex assembly and membrane fusion” (Nature Communications, 2017)
These are yes or no findings as the source states them, for the method shown. Binding calls can cover weak binding; strength is not graded here.

The chains behind the UniProt entries cited, without tags or fusion partners. Where a name states a change or a piece, a line headed by the entry shows the natural chain unless it says otherwise.
UniProt P32867: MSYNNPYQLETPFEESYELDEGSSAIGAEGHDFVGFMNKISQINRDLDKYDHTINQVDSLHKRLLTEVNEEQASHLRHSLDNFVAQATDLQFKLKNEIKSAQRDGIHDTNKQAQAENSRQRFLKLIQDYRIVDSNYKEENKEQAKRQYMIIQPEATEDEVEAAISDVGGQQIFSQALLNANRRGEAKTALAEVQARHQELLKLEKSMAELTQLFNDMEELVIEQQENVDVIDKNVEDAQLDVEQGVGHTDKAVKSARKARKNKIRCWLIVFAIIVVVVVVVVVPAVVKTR

Biological target: T1, GST-Sec3N (Sec3 N-terminus, a.a. 1–320) (yeast, UniProt P33332 1-320)
T1 construct: Sec3, yeast exocyst subunit, N-terminus a.a; 1-320; also called pG1860; source: E. coli BL21(DE3), purified (Glutathione Sepharose 4B)
T1 sequence (looked up): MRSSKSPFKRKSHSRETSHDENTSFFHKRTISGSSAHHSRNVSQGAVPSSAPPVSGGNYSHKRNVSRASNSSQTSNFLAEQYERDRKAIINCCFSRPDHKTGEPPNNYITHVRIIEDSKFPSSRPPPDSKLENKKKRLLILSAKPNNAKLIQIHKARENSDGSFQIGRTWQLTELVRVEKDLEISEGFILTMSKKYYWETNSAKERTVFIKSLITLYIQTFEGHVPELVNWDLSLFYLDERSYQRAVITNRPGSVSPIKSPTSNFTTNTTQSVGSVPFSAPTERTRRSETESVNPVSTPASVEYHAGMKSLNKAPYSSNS
Experiment: pull-down; GST fusion proteins (12 μg) coupled to glutathione Sepharose 4B; His6-Sso2 2 μM added, 25 °C for 2 h; three washes in PBS; SDS-PAGE, Coomassie blue; both purified

binding: binds
Substance: Sso1 (from UniProt P32867)
